The list shows a part of the results.

Protein sequences, listed by entry. Tags and fused reporters are not part of them.
UniProt Q0JBA9, entry or part of it: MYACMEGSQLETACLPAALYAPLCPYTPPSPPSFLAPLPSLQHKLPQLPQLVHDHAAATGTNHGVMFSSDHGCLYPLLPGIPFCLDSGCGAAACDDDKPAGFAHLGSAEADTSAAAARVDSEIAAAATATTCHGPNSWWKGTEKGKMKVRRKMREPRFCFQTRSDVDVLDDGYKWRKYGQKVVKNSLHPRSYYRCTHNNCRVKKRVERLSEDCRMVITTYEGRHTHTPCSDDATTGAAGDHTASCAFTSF

Binding signal data for 42 sequences are collected here from paper PMC7819943, “Rice protein-binding microarrays: a tool to detect cis-acting elements near promoter regions in rice”.

The assay has as its target OsWRKY34 (Oryza sativa, UniProt Q0JBA9 1-250). Description: protein-binding microarray (RPBM); PBS, 2% BSA, 51.3 ng/ul salmon testes DNA, 50 uM zinc acetate, 200 nM TF, 25 C, 1 h; high values mean tight binding. As to conditions: protein: recombinant; tags: N-terminal polyhistidine and DsRed monomer fusion (pET32a); label: CyDye5-dUTP incorporated in the synthesized complementary strand; 3' TTTTT single-stranded linker to array surface; dsDNA, one strand shown. The method, boiled down: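 Polyhistidine-tagged DsRed fusions of transcription factors, joined at the N-terminus, were expressed in E. coli BL21-CodonPlus and isolated on Ni–NTA. They were incubated at 200 nM for 1 h at 25 °C on a custom Agilent array, double-stranded and BSA-blocked, in PBS with 2% BSA, salmon testes DNA and 50 µM zinc acetate. The binding signal is per-feature fluorescence intensity (arbitrary units) read on an Axon 4000B scanner after washing.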
For the sequence “TTGGTGGTGAAGGGGAGGGCGCATGCGACGTGGAGGGTGTCGGAGTCACCTAGTGCAG”, the binding signal was 9120 fluorescence intensity (a.u.).
The same measure for “AATGTGTGTTTATTTTTATTATAATACTGTATTTGTCTTTCGGAGTCACCTAGTGCAG”: 11000 fluorescence intensity (a.u.).
As for “GGCTGCCTCCTCTCCTCATCCCTGCACCTACACTCCAATACGGAGTCACCTAGTGCAG”, the binding signal is 8530 fluorescence intensity (a.u.).
The same measure for “CCCATACATTACCTGTTGCTTTTTTTATGGCCCTTCTTTTCGGAGTCACCTAGTGCAG”: 9710 fluorescence intensity (a.u.); for “TGTGTTCCTTTTCCTCCCATTTGATTATTTCAATCTTACACGGAGTCACCTAGTGCAG”: 8180 fluorescence intensity (a.u.); for “AAATAACGGTTCGGTTCACTTGTAATTTATCCCGTTGTTACGGAGTCACCTAGTGCAG”: 10500 fluorescence intensity (a.u.).
For the sequence “CTCTCACACACACACACCGATTAACTTGCTGGATTCCATACGGAGTCACCTAGTGCAG”, the binding signal is 10400 fluorescence intensity (a.u.).
With “AGCGTGTTTACTACTCTTATTGCTACTAGTACGTGTGTTTCGGAGTCACCTAGTGCAG”, the binding signal was 9110 fluorescence intensity (a.u.).
The same measure for “TGTAGACGGCCGGTCACACTATCTTTATGCTGAGTCATGTCGGAGTCACCTAGTGCAG”: 8910 fluorescence intensity (a.u.).
Take “GCTTGCCTGCTTGGGCGGCAGCTTGGATTCCCACGTTTTCCGGAGTCACCTAGTGCAG”: the binding signal is 8220 fluorescence intensity (a.u.).
Regarding “CAATCTCATTAGCTATCTATTTCATTAGTTCTCTATTGTACGGAGTCACCTAGTGCAG”, the binding signal is 8100 fluorescence intensity (a.u.).
As to “CCGCTCGCGCCGCCCCTCGCCGTCGCCCGTCGCCGGCGCCCGGAGTCACCTAGTGCAG”, the binding signal is 12000 fluorescence intensity (a.u.).
For “GAATAAGACGAACGGTCAAACATGTGCTAAAAAGTCAACGCGGAGTCACCTAGTGCAG”, the binding signal is 13400 fluorescence intensity (a.u.).
In the case of “CCTTGCATCAGTTAGTCAACTGCTTTAGTAGTTCTGTTACCGGAGTCACCTAGTGCAG”, the binding signal is 9540 fluorescence intensity (a.u.).
As for “AGAGGGTGGTAAGTGGGCTGCGAGCTAGAGCGTATATTCTCGGAGTCACCTAGTGCAG”, the binding signal is 8630 fluorescence intensity (a.u.).
The same measure for “ACACACTAGCTCCTAGCTTGGCTCTCACTCTCTCTCTAGACGGAGTCACCTAGTGCAG”: 8280 fluorescence intensity (a.u.); for “TGTCACGCAAGCCGTAATCCCGTTCCGGGCCATTGGCCCACGGAGTCACCTAGTGCAG”: 8630 fluorescence intensity (a.u.).
The same measure for “TCTTTCTTTGTTGTTGCTATGGCTGAGCGAGGGAGCCAAACGGAGTCACCTAGTGCAG”: 9460 fluorescence intensity (a.u.); for “TTTTGCTAGTTATCATTTATTTGTCATTTATTTTGCTAGTCGGAGTCACCTAGTGCAG”: 8050 fluorescence intensity (a.u.).
As to “GCATTTCTTACATGTAGAGTGTCTTCTCCATTTCGTACCACGGAGTCACCTAGTGCAG”, the binding signal is 9540 fluorescence intensity (a.u.).
For the sequence “TACGTATCTACTATAGTCTTATCATCAGTGTATAAGTGACCGGAGTCACCTAGTGCAG”, the binding signal was 8340 fluorescence intensity (a.u.).
The same measure for “AGTCGATCGATCTTCTTCCGCCGCCTGCGTACGCCCATCTCGGAGTCACCTAGTGCAG”: 11700 fluorescence intensity (a.u.).
The same measure for “CTGGTCATCATTTCACACCCATATACTGTGTCCAAAGTCCCGGAGTCACCTAGTGCAG”: 8060 fluorescence intensity (a.u.); for “TCATCTCCTCGTCTCGCCCCGCTCCAAGCGCGCCGCCATGCGGAGTCACCTAGTGCAG”: 9370 fluorescence intensity (a.u.).
The same measure for “TTCACAACACTTGTACACTCGCTCCTATGAACGGATGCACCGGAGTCACCTAGTGCAG”: 10200 fluorescence intensity (a.u.).
“TTGCCTTGTCGCAGCACGGCGGCCGCCCTATCTCTACCTCCGGAGTCACCTAGTGCAG”: the binding signal is 10200 fluorescence intensity (a.u.).
The same measure for “GTTGCTGTGTTCTGTCTTCTCCATAGACAGTGTAGTGATTCGGAGTCACCTAGTGCAG”: 9330 fluorescence intensity (a.u.); for “ACTCTTCCGCACCAACCTGGATGTTTATTACGCTCCATCACGGAGTCACCTAGTGCAG”: 11200 fluorescence intensity (a.u.).
The same measure for “TTTGGTTGAGCGTATATATATGTTTGTGTGGCATCTTTTTCGGAGTCACCTAGTGCAG”: 8910 fluorescence intensity (a.u.); for “AATTAATCATGAGCTAATAGCTCACCTCGTTTTGCGTATCCGGAGTCACCTAGTGCAG”: 8800 fluorescence intensity (a.u.); for “TATCCACCACCTAGTTGCTGCCACCTCCTGAGAACCAAGCCGGAGTCACCTAGTGCAG”: 8810 fluorescence intensity (a.u.).
The same measure for “ATGGTGTTTCTTAATTGCTTTTTGCCTTTTATTATATCTACGGAGTCACCTAGTGCAG”: 8510 fluorescence intensity (a.u.); for “AGAACCAATCCATCTTTACTGAACTTCTTTGGCATTCATTCGGAGTCACCTAGTGCAG”: 12000 fluorescence intensity (a.u.).
Consider “CTCTATAGACCGCTTGAACATCATTTATTATTTATTTTTACGGAGTCACCTAGTGCAG”, for which the binding signal is 8830 fluorescence intensity (a.u.).
Consider “AACTAGCTAAGTCCGAATCCAACACGAGTCCATCAGCTCACGGAGTCACCTAGTGCAG”, for which the binding signal is 8620 fluorescence intensity (a.u.).
In the case of “TGTGCCAGCCACCATGCACCAGCCGGCTACCTAGCGGCTCCGGAGTCACCTAGTGCAG”, the binding signal was 8030 fluorescence intensity (a.u.).
The same measure for “GTTGCTTCTCCATCTTGGCGGGCCCCACAGTTTCCTCGAGCGGAGTCACCTAGTGCAG”: 11100 fluorescence intensity (a.u.).
The same measure for “TCTGCCGCTGCTACGCTGGATACACACGCGCTCGCTTTCTCGGAGTCACCTAGTGCAG”: 10100 fluorescence intensity (a.u.); for “GGCAAAGTCTTTCTGGCACTATAGCTCTATTATTGCAGTTCGGAGTCACCTAGTGCAG”: 8570 fluorescence intensity (a.u.).
The same measure for “ATTGTTTTGCATTTACTATTAATTTTACTTTGAGGTTATTCGGAGTCACCTAGTGCAG”: 8930 fluorescence intensity (a.u.).
In the case of “TGTGGGTAGTATAGGTATATTGTAGGAATGTTATCAAATTCGGAGTCACCTAGTGCAG”, the binding signal was 9520 fluorescence intensity (a.u.).
The same measure for “GCTACACTTAACGCTGTCCACAACTCCACATACGCGTTACCGGAGTCACCTAGTGCAG”: 8440 fluorescence intensity (a.u.).
